Data source: PubChem BioAssay AID1224829 (NIAID, 2016)

- Aim: 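Follow-up of TLR4-NF-kappaB regulators using six separate siRNAs for each gene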 (follow-up of hits)
- Cells: mouse RAW264.7 G9 macrophage reporter cells
- Reagent: single siRNA against mouse genes, 100 nM
- Time to read-out: 2 days of siRNA knock-down, then 40 min of LPS before fixing
- Treatment: LPS (Salmonella minnesota R595) at 10 ng/ml
- Detection: 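Imaging of GFP-p65 after 40 min of LPS; nuclear over perinuclear ring intensity ratio, scaled to plate median and non-targeting control wells, given as z-score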
- Scale: p65 translocation z-score and gene median z-score, per vendor: higher = more nuclear NF-kappaB p65 after LPS
- Hit rule: 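Active means the replicate-mean z-score lies beyond plus or minus 2, in either direction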
- Meaning of the calls: active = changed p65 translocation (either direction); inactive = no clear change
The whole screen tested about 3,800 reagents; shown is an unselected part. 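Calls cover raised and lowered translocation; gene median uses one vendor's three siRNAs; qiagen siRNAs acted more weakly than ambion siRNAs.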 Unmarked entries are inactive. The numbers tell different reagents against one gene apart. Reagent sequences are not shown.

| Target gene | reagent no. | siRNA vendor or control pool | p65 translocation z-score, replicate mean | p65 translocation z-score, replicate 1 | p65 translocation z-score, replicate 2 | gene median z-score, per vendor |
| --- | --- | --- | --- | --- | --- | --- |
| Fau (GeneID 14109) | 1 | ambion single siRNA | -0.309 | 1.02 | -1.63 | -1.63 |
| Fau (GeneID 14109) | 2 | ambion single siRNA | -3.46 (active) | -2.92 | -3.99 | -1.63 |
| Fau (GeneID 14109) | 3 | ambion single siRNA | 0.0793 | 0.0793 | – | -1.63 |
| Fau (GeneID 14109) | 4 | qiagen single siRNA | -3.41 (active) | -3.7 | -3.12 | -1.31 |
| Fau (GeneID 14109) | 5 | qiagen single siRNA | 0.546 | -0.194 | 1.29 | -1.31 |
| Fau (GeneID 14109) | 6 | qiagen single siRNA | -1.31 | -0.537 | -2.08 | -1.31 |
| Tmem107 (GeneID 66910) | 1 | ambion single siRNA | 0.885 | 2.36 | -0.587 | -0.917 |
| Tmem107 (GeneID 66910) | 2 | ambion single siRNA | -1.74 | -1.25 | -2.24 | -0.917 |
| Tmem107 (GeneID 66910) | 3 | ambion single siRNA | -1.97 | -0.575 | -3.36 | -0.917 |
| Tmem107 (GeneID 66910) | 4 | qiagen single siRNA | 0.571 | -0.443 | 1.58 | -0.193 |
| Tmem107 (GeneID 66910) | 5 | qiagen single siRNA | 1.2 | 0.0578 | 2.35 | -0.193 |
| Tmem107 (GeneID 66910) | 6 | qiagen single siRNA | -1.02 | -0.904 | -1.13 | -0.193 |
| Ifi30 (GeneID 65972) | 1 | ambion single siRNA | -4.87 (active) | -6.21 | -3.53 | -2.96 |
| Ifi30 (GeneID 65972) | 2 | ambion single siRNA | -0.237 | 1.92 | -2.39 | -2.96 |
| Ifi30 (GeneID 65972) | 3 | ambion single siRNA | -4.17 (active) | -6.31 | -2.03 | -2.96 |
| Ifi30 (GeneID 65972) | 4 | qiagen single siRNA | -2.24 (active) | -1.57 | -2.92 | -1.37 |
| Ifi30 (GeneID 65972) | 5 | qiagen single siRNA | 1.14 | -0.497 | 2.78 | -1.37 |
| Ifi30 (GeneID 65972) | 6 | qiagen single siRNA | -2.92 (active) | -4.67 | -1.18 | -1.37 |
| Heatr5a (GeneID 320487) | 1 | ambion single siRNA | -1.11 | -0.732 | -1.49 | -1.75 |
| Heatr5a (GeneID 320487) | 2 | ambion single siRNA | -1.48 | -2.18 | -0.779 | -1.75 |
| Heatr5a (GeneID 320487) | 3 | ambion single siRNA | -2.74 (active) | -2.01 | -3.46 | -1.75 |
| Heatr5a (GeneID 320487) | 4 | qiagen single siRNA | 1.89 | 1.89 | – | 1.84 |
| Heatr5a (GeneID 320487) | 5 | qiagen single siRNA | 0.422 | -0.474 | 1.32 | 1.84 |
| Heatr5a (GeneID 320487) | 6 | qiagen single siRNA | 2.82 (active) | 1.84 | 3.8 | 1.84 |
| Neil3 (GeneID 234258) | 1 | ambion single siRNA | -2.13 (active) | -2.13 | – | -3.1 |
| Neil3 (GeneID 234258) | 2 | ambion single siRNA | -4.06 (active) | -4.06 | – | -3.1 |
| Neil3 (GeneID 234258) | 3 | ambion single siRNA | – | – | – | -3.1 |
| Neil3 (GeneID 234258) | 4 | qiagen single siRNA | 4.05 (active) | 3.22 | 4.87 | 1.14 |
| Neil3 (GeneID 234258) | 5 | qiagen single siRNA | 0.502 | -0.0334 | 1.04 | 1.14 |
| Neil3 (GeneID 234258) | 6 | qiagen single siRNA | 0.522 | -0.191 | 1.24 | 1.14 |
| Hdac7 (GeneID 56233) | 1 | ambion single siRNA | 0.749 | 0.86 | 0.638 | 0.638 |
| Hdac7 (GeneID 56233) | 2 | ambion single siRNA | -1.18 | -1.8 | -0.556 | 0.638 |
| Hdac7 (GeneID 56233) | 3 | ambion single siRNA | 0.677 | 0.677 | – | 0.638 |
| Hdac7 (GeneID 56233) | 4 | qiagen single siRNA | 1.1 | -0.166 | 2.36 | -1.54 |
| Hdac7 (GeneID 56233) | 5 | qiagen single siRNA | -2.08 (active) | -2.08 | -2.07 | -1.54 |
| Hdac7 (GeneID 56233) | 6 | qiagen single siRNA | -2.01 (active) | -1.01 | -3.01 | -1.54 |

No new results follow: an excerpt of the list.
| Target gene | reagent no. | siRNA vendor or control pool | p65 translocation z-score, replicate mean | p65 translocation z-score, replicate 1 | p65 translocation z-score, replicate 2 | gene median z-score, per vendor |
| --- | --- | --- | --- | --- | --- | --- |
| Neil3 (GeneID 234258) | 2 | ambion single siRNA | -4.06 (active) | -4.06 | – | -3.1 |
| Neil3 (GeneID 234258) | 3 | ambion single siRNA | – | – | – | -3.1 |
| Neil3 (GeneID 234258) | 4 | qiagen single siRNA | 4.05 (active) | 3.22 | 4.87 | 1.14 |
| Neil3 (GeneID 234258) | 5 | qiagen single siRNA | 0.502 | -0.0334 | 1.04 | 1.14 |
| Neil3 (GeneID 234258) | 6 | qiagen single siRNA | 0.522 | -0.191 | 1.24 | 1.14 |
| Hdac7 (GeneID 56233) | 1 | ambion single siRNA | 0.749 | 0.86 | 0.638 | 0.638 |
